Experimental data reported in PMC7645679.
No constants are given. Whether binding was seen depends on the method and setting. Sequences can lack the tags named with a protein.

Protein sequences, listed by entry. Tags and fused reporters are not part of them. Lines headed by an entry give the natural chain unless they say otherwise; changes in a name come on top.
UniProt Q6A026: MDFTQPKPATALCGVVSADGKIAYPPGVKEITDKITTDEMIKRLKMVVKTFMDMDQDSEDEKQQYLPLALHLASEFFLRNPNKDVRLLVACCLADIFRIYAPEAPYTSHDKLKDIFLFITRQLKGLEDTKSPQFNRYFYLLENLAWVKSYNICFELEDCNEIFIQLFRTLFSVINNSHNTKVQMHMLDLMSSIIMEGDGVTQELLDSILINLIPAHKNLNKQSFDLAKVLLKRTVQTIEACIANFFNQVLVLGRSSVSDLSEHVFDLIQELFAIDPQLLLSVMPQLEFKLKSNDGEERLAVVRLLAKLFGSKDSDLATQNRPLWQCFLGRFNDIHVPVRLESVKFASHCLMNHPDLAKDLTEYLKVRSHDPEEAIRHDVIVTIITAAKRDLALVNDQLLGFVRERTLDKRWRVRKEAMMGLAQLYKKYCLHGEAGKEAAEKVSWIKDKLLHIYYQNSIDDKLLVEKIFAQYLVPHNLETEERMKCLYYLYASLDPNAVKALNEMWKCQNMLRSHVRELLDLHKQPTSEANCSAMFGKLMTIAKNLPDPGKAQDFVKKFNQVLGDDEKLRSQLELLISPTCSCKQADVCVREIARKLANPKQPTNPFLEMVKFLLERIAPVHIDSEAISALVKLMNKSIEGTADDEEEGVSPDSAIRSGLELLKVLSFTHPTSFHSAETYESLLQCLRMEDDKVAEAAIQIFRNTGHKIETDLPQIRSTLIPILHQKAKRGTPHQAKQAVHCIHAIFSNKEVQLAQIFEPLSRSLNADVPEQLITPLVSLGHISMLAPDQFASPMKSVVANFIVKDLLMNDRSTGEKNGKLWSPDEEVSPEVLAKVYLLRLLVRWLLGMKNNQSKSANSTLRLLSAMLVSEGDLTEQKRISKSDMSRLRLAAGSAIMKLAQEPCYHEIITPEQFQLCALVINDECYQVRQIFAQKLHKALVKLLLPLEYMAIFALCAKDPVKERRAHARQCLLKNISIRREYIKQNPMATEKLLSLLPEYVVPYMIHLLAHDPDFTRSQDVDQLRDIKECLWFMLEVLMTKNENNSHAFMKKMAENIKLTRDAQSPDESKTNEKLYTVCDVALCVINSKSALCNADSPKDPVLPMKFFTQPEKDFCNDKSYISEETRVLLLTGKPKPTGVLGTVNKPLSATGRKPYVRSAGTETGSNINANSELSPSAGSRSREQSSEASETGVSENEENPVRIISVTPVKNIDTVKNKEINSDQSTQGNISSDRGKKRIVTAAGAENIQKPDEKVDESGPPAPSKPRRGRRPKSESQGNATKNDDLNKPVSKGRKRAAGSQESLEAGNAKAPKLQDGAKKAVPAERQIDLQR

Target: T1, CTCF (mouse), GFP fusion tethered to the LacO array in the fluorescent three-hybrid assay (mouse) (UniProt Q61164)
T1 sequence: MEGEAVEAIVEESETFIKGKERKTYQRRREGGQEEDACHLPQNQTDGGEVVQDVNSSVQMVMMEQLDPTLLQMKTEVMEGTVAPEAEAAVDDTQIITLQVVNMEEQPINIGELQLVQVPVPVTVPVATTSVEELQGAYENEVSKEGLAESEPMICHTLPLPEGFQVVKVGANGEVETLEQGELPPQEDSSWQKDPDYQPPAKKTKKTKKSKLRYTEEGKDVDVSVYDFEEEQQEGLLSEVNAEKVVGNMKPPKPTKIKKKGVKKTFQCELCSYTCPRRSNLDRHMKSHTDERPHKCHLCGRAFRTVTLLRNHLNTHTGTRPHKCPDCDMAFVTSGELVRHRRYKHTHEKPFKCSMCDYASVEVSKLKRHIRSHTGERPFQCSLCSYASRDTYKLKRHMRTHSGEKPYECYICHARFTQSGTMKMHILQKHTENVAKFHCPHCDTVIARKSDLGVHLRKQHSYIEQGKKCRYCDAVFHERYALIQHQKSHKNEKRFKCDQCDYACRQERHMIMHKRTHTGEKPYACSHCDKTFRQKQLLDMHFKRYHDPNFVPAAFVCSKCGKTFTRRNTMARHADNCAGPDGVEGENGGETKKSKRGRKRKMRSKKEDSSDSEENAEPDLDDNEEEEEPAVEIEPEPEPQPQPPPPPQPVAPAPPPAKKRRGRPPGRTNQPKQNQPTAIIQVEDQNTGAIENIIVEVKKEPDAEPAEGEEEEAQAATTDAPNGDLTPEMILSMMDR
Assay: fluorescent three-hybrid (F3H); GFP-tagged bait tethered to a LacO array by GFP nanobody–LacR in BHK-LacO cells; recruitment of mKate2-tagged prey read as Pearson correlation of green and red channels at the array; cells fixed 24 h after transfection

- binding: no binding
Substance: PDS5A with alanine substitution of the APEAP motif, mKate2 fusion (from UniProt Q6A026)
